Some of these results come from one statement about several compounds together. In the oligonucleotide strings, read from the 5' end, every base follows the letter of its sugar. An asterisk marks phosphorothioate; unmarked linkages are phosphodiester. Other units and linkages are bracketed, terminal groups are in braces. A string of capitals states the bases alone. e = 2'-O-(2-methoxyethyl) (MOE); [5mC] = 5-methylcytosine; d = 2'-deoxy (DNA)
Test system: human growth hormone receptor mRNA
Test: Inhibition of human growth hormone receptor mRNA levels in MCF7 cells, quantitative real-time PCR
Type: cell-based
Parameters: concentration or dose not given beside the values
Settings: averages from three experiments
Procedure: The human breast carcinoma cell line MCF-7 was obtained from the American Type Culture Collection (Manassas, Va.). MCF-7 cells were routinely cultured in DMEM low glucose (Gibco/Life Technologies, Gaithersburg, Md.) supplemented with 10% fetal calf serum (Gibco/Life Technologies, Gaithersburg, Md.). Cells were routinely passaged by trypsinization and dilution when they reached 90% confluence. Cells were seeded into 96-well plates (Falcon-Primaria #3872) at a density of 7000 cells/well for use in RT-PCR analysis.
When cells reached 65-75% confluency, they were treated with oligonucleotide. For cells grown in 96-well plates, wells were washed once with 100 μL OPTI-MEM™-1 reduced-serum medium (Invitrogen Corporation, Carlsbad, Calif.) and then treated with 130 μL of OPTI-MEM™-1 containing 3.75 μg/mL LIPOFECTIN™ (Invitrogen Corporation, Carlsbad, Calif.) and the desired concentration of oligonucleotide. Cells are treated and data are obtained in triplicate. After 4-7 hours of treatment at 37° C., the medium was replaced with fresh medium. Cells were harvested 16-24 hours after oligonucleotide treatment.
Total RNA was isolated using an RNEASY 96™ kit and buffers purchased from Qiagen Inc. (Valencia, Calif.) following the manufacturer's recommended procedures. Briefly, for cells grown on 96-well plates, growth medium was removed from the cells and each well was washed with 200 μL cold PBS. 150 μL Buffer RLT was added to each well and the plate vigorously agitated for 20 seconds. 150 μL of 70% ethanol was then added to each well and the contents mixed by pipetting three times up and down. The samples were then transferred to the RNEASY 96™ well plate attached to a QIAVAC™ manifold fitted with a waste collection tray and attached to a vacuum source. Vacuum was applied for 1 minute. 500 μL of Buffer RW1 was added to each well of the RNEASY 96™ plate and incubated for 15 minutes and the vacuum was again applied for 1 minute. An additional 500 μL of Buffer RW1 was added to each well of the RNEASY 96™ plate and the vacuum was applied for 2 minutes. 1 mL of Buffer RPE was then added to each well of the RNEASY 96™ plate and the vacuum applied for a period of 90 seconds. The Buffer RPE wash was then repeated and the vacuum was applied for an additional 3 minutes. The plate was then removed from the QIAVAC™ manifold and blotted dry on paper towels. The plate was then re-attached to the QIAVAC™ manifold fitted with a collection tube rack containing 1.2 mL collection tubes. RNA was then eluted by pipetting 140 μL of RNAse free water into each well, incubating 1 minute, and then applying the vacuum for 3 minutes.
Quantitation of growth hormone receptor mRNA levels was accomplished by real-time quantitative PCR using the ABI PRISM™ 7600, 7700, or 7900 Sequence Detection System (PE-Applied Biosystems, Foster City, Calif.) according to manufacturer's instructions. This is a closed-tube, non-gel-based, fluorescence detection system which allows high-throughput quantitation of polymerase chain reaction (PCR) products in real-time. As opposed to standard PCR in which amplification products are quantitated after the PCR is completed, products in real-time quantitative PCR are quantitated as they accumulate. This is accomplished by including in the PCR reaction an oligonucleotide probe that anneals specifically between the forward and reverse PCR primers, and contains two fluorescent dyes. A reporter dye (e.g., FAM or JOE, obtained from either PE-Applied Biosystems, Foster City, Calif., Operon Technologies Inc., Alameda, Calif. or Integrated DNA Technologies Inc., Coralville, Iowa) is attached to the 5′ end of the probe and a quencher dye (e.g., TAMRA, obtained from either PE-Applied Biosystems, Foster City, Calif., Operon Technologies Inc., Alameda, Calif. or Integrated DNA Technologies Inc., Coralville, Iowa) is attached to the 3′ end of the probe. When the probe and dyes are intact, reporter dye emission is quenched by the proximity of the 3′ quencher dye. […]

| Substance | % INHIB |
| --- | --- |
| cacagctttgaattgaatta (e[5mC]*eA*e[5mC]*eA*eG*d[5mC]*dT*dT*dT*dG*dA*dA*dT*dT*dG*eA*eA*eT*eT*eA; antisense) [ISIS 272348] | at least 45% |
| gggtggatctggttgcacta (eG*eG*eG*eT*eG*dG*dA*dT*d[5mC]*dT*dG*dG*dT*dT*dG*e[5mC]*eA*e[5mC]*eT*eA; antisense) [ISIS 272312] | at least 45% |
| taacagctgttttccccagc (eT*eA*eA*e[5mC]*eA*dG*d[5mC]*dT*dG*dT*dT*dT*dT*d[5mC]*d[5mC]*e[5mC]*e[5mC]*eA*eG*e[5mC]; antisense) [ISIS 272309] | at least 45% |
| ccaaaatgacattctgagac (e[5mC]*e[5mC]*eA*eA*eA*dA*dT*dG*dA*d[5mC]*dA*dT*dT*d[5mC]*dT*eG*eA*eG*eA*e[5mC]; antisense) [ISIS 272352] | at least 45% |
| catcaaccaagatttggtga (e[5mC]*eA*eT*e[5mC]*eA*dA*d[5mC]*d[5mC]*dA*dA*dG*dA*dT*dT*dT*eG*eG*eT*eG*eA; antisense) [ISIS 272340] | at least 45% |
| agttggtctgtgctcacata (eA*eG*eT*eT*eG*dG*dT*d[5mC]*dT*dG*dT*dG*d[5mC]*dT*d[5mC]*eA*e[5mC]*eA*eT*eA; antisense) [ISIS 227488] | at least 45% |
| aaggcataagagatctgctt (eA*eA*eG*eG*e[5mC]*dA*dT*dA*dA*dG*dA*dG*dA*dT*d[5mC]*eT*eG*e[5mC]*eT*eT; antisense) [ISIS 272325] | at least 45% |
| tctccagatagaatctaaac (eT*e[5mC]*eT*e[5mC]*e[5mC]*dA*dG*dA*dT*dA*dG*dA*dA*dT*d[5mC]*eT*eA*eA*eA*e[5mC]; antisense) [ISIS 272358] | at least 45% |
| ctcttggagaaaaccatagc (e[5mC]*eT*e[5mC]*eT*eT*dG*dG*dA*dG*dA*dA*dA*dA*d[5mC]*d[5mC]*eA*eT*eA*eG*e[5mC]; antisense) [ISIS 272346] | at least 45% |
| ccagagatccatacctgtag (e[5mC]*e[5mC]*eA*eG*eA*dG*dA*dT*d[5mC]*d[5mC]*dA*dT*dA*d[5mC]*d[5mC]*eT*eG*eT*eA*eG; antisense) [ISIS 272303] | at least 45% |
| gtgaatttaggctccttaga (eG*eT*eG*eA*eA*dT*dT*dT*dA*dG*dG*d[5mC]*dT*d[5mC]*d[5mC]*eT*eT*eA*eG*eA; antisense) [ISIS 272307] | at least 45% |
| cttagaagtctgtctgtgtc (e[5mC]*eT*eT*eA*eG*dA*dA*dG*dT*d[5mC]*dT*dG*dT*d[5mC]*dT*eG*eT*eG*eT*e[5mC]; antisense) [ISIS 227469] | at least 45% |
| tccaaatattctggtacttt (eT*e[5mC]*e[5mC]*eA*eA*dA*dT*dA*dT*dT*d[5mC]*dT*dG*dG*dT*eA*e[5mC]*eT*eT*eT; antisense) [ISIS 272359] | at least 45% |
| ttgtctttaggcctggatta (eT*eT*eG*eT*e[5mC]*dT*dT*dT*dA*dG*dG*d[5mC]*d[5mC]*dT*dG*eG*eA*eT*eT*eA; antisense) [ISIS 272305] | at least 45% |
| tgtgtctgattcctcagtct (eT*eG*eT*eG*eT*d[5mC]*dT*dG*dA*dT*dT*d[5mC]*d[5mC]*dT*d[5mC]*eA*eG*eT*e[5mC]*eT; antisense) [ISIS 272323] | at least 45% |
| gatccatacctgtaggacct (eG*eA*eT*e[5mC]*e[5mC]*dA*dT*dA*d[5mC]*d[5mC]*dT*dG*dT*dA*dG*eG*eA*e[5mC]*e[5mC]*eT; antisense) [ISIS 272302] | at least 45% |
| aaatacgtagctcttgggaa (eA*eA*eA*eT*eA*d[5mC]*dG*dT*dA*dG*d[5mC]*dT*d[5mC]*dT*dT*eG*eG*eG*eA*eA; antisense) [ISIS 272335] | at least 45% |

| Substance | % INHIB |
| --- | --- |
| tggtgatgtaaatgtcctct (eT*eG*eG*eT*eG*dA*dT*dG*dT*dA*dA*dA*dT*dG*dT*e[5mC]*e[5mC]*eT*e[5mC]*eT; antisense) [ISIS 227481] | at least 45% |
| cctgctggtgtaatgtcgct (e[5mC]*e[5mC]*eT*eG*e[5mC]*dT*dG*dG*dT*dG*dT*dA*dA*dT*dG*eT*e[5mC]*eG*e[5mC]*eT; antisense) [ISIS 227475] | at least 45% |
| aactcgccataatttccaga (eA*eA*e[5mC]*eT*e[5mC]*dG*d[5mC]*d[5mC]*dA*dT*dA*dA*dT*dT*dT*e[5mC]*e[5mC]*eA*eG*eA; antisense) [ISIS 272316] | at least 45% |
| cataatcagggcattctttc (e[5mC]*eA*eT*eA*eA*dT*d[5mC]*dA*dG*dG*dG*d[5mC]*dA*dT*dT*e[5mC]*eT*eT*eT*e[5mC]; antisense) [ISIS 227453] | at least 45% |
| actcagctccttcagtagga (eA*e[5mC]*eT*e[5mC]*eA*dG*d[5mC]*dT*d[5mC]*d[5mC]*dT*dT*d[5mC]*dA*dG*eT*eA*eG*eG*eA; antisense) [ISIS 272326] | at least 45% |
| caatgagtacactggaactg (e[5mC]*eA*eA*eT*eG*dA*dG*dT*dA*d[5mC]*dA*d[5mC]*dT*dG*dG*eA*eA*e[5mC]*eT*eG; antisense) [ISIS 272315] | at least 45% |
| agtcttccaaacacacagct (eA*eG*eT*e[5mC]*eT*dT*d[5mC]*d[5mC]*dA*dA*dA*d[5mC]*dA*d[5mC]*dA*e[5mC]*eA*eG*e[5mC]*eT; antisense) [ISIS 272349] | at least 45% |
| gtgctatggtttgcattcaa (eG*eT*eG*e[5mC]*eT*dA*dT*dG*dG*dT*dT*dT*dG*d[5mC]*dA*eT*eT*e[5mC]*eA*eA; antisense) [ISIS 272338] | at least 45% |
| attttccttccttgaggaga (eA*eT*eT*eT*eT*d[5mC]*d[5mC]*dT*dT*d[5mC]*d[5mC]*dT*dT*dG*dA*eG*eG*eA*eG*eA; antisense) [ISIS 272319] | at least 45% |
| agttatgtgaccctgattga (eA*eG*eT*eT*eA*dT*dG*dT*dG*dA*d[5mC]*d[5mC]*d[5mC]*dT*dG*eA*eT*eT*eG*eA; antisense) [ISIS 272354] | at least 45% |
| tagggtccatctttcaagac (eT*eA*eG*eG*eG*dT*d[5mC]*d[5mC]*dA*dT*d[5mC]*dT*dT*dT*d[5mC]*eA*eA*eG*eA*e[5mC]; antisense) [ISIS 272357] | at least 45% |
| ttgcactatttcatcaacag (eT*eT*eG*e[5mC]*eA*d[5mC]*dT*dA*dT*dT*dT*d[5mC]*dA*dT*d[5mC]*eA*eA*e[5mC]*eA*eG; antisense) [ISIS 272311] | at least 45% |
| tcagcattttaatcctttgc (eT*e[5mC]*eA*eG*e[5mC]*dA*dT*dT*dT*dT*dA*dA*dT*d[5mC]*d[5mC]*eT*eT*eT*eG*e[5mC]; antisense) [ISIS 272318] | at least 45% |
| gtgctcacatagccacatga (eG*eT*eG*e[5mC]*eT*d[5mC]*dA*d[5mC]*dA*dT*dA*dG*d[5mC]*d[5mC]*dA*e[5mC]*eA*eT*eG*eA; antisense) [ISIS 272333] | at least 45% |
| tctacactgatgatacttta (eT*e[5mC]*eT*eA*e[5mC]*dA*d[5mC]*dT*dG*dA*dT*dG*dA*dT*dA*e[5mC]*eT*eT*eT*eA; antisense) [ISIS 272347] | at least 45% |
| tcatcaatatctagctcaat (eT*e[5mC]*eA*eT*e[5mC]*dA*dA*dT*dA*dT*d[5mC]*dT*dA*dG*d[5mC]*eT*e[5mC]*eA*eA*eT; antisense) [ISIS 227468] | at least 45% |

Reference: US8637484B2, “Modulation of growth hormone receptor expression and insulin-like growth factor expression” (Antisense Therapeutic Limited, priority 2003, dated 2014)
